Drawing on PMC5013526, this text covers binding for 14 molecules.

The chains behind the UniProt entries cited, without tags or fusion partners. Where a name states a change or a piece, a line headed by the entry shows the natural chain unless it says otherwise.
UniProt Q9QR71: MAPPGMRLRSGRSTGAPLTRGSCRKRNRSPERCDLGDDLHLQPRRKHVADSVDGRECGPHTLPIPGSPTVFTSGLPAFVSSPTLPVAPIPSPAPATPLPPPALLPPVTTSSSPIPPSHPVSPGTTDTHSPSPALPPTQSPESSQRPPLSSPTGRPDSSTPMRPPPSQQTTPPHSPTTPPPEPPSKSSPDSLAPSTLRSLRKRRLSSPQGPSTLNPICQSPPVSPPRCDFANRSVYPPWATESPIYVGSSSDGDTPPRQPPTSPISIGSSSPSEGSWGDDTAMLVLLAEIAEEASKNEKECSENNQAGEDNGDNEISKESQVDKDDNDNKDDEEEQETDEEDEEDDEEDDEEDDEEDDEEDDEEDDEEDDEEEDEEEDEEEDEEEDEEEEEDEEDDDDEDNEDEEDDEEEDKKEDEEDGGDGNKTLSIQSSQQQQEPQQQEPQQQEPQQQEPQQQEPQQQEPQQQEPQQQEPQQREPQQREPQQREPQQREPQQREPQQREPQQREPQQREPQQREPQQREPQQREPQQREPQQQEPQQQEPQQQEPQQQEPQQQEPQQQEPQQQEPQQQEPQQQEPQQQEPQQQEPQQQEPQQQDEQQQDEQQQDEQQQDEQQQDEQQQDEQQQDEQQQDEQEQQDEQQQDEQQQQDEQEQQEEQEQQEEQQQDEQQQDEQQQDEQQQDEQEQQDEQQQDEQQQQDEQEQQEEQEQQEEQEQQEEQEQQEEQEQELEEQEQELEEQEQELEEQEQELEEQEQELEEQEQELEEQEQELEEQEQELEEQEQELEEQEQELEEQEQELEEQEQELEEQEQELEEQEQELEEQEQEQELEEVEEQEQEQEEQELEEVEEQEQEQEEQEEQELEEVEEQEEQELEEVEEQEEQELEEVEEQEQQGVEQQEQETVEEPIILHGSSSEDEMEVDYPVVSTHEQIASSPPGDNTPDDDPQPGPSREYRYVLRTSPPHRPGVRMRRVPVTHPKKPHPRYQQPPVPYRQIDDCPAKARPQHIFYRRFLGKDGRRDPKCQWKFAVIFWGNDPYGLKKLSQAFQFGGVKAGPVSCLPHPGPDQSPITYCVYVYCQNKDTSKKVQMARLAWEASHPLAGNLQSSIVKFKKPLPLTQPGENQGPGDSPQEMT
UniProt O43707: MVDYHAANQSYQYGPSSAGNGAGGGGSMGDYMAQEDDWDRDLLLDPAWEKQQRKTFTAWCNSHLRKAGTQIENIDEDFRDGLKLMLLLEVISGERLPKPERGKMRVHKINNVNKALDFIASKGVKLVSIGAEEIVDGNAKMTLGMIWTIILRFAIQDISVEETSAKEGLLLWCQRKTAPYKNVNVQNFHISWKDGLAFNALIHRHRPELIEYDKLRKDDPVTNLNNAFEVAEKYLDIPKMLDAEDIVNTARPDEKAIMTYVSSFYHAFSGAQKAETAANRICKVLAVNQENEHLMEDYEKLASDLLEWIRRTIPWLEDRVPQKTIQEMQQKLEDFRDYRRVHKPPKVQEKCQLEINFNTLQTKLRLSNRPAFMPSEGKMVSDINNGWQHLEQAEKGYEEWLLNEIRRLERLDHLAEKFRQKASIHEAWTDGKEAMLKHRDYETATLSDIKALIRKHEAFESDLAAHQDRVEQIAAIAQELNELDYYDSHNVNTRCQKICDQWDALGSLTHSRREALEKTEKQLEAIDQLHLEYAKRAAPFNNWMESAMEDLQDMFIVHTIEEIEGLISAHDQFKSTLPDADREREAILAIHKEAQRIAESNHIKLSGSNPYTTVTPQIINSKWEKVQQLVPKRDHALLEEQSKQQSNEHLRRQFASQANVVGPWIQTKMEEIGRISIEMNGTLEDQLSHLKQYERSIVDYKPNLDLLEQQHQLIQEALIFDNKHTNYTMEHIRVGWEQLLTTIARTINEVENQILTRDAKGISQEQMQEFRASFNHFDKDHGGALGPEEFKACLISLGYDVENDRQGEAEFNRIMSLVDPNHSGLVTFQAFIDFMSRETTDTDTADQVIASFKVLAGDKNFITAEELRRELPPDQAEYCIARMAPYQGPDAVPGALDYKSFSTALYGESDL
UniProt Q9Y6D5: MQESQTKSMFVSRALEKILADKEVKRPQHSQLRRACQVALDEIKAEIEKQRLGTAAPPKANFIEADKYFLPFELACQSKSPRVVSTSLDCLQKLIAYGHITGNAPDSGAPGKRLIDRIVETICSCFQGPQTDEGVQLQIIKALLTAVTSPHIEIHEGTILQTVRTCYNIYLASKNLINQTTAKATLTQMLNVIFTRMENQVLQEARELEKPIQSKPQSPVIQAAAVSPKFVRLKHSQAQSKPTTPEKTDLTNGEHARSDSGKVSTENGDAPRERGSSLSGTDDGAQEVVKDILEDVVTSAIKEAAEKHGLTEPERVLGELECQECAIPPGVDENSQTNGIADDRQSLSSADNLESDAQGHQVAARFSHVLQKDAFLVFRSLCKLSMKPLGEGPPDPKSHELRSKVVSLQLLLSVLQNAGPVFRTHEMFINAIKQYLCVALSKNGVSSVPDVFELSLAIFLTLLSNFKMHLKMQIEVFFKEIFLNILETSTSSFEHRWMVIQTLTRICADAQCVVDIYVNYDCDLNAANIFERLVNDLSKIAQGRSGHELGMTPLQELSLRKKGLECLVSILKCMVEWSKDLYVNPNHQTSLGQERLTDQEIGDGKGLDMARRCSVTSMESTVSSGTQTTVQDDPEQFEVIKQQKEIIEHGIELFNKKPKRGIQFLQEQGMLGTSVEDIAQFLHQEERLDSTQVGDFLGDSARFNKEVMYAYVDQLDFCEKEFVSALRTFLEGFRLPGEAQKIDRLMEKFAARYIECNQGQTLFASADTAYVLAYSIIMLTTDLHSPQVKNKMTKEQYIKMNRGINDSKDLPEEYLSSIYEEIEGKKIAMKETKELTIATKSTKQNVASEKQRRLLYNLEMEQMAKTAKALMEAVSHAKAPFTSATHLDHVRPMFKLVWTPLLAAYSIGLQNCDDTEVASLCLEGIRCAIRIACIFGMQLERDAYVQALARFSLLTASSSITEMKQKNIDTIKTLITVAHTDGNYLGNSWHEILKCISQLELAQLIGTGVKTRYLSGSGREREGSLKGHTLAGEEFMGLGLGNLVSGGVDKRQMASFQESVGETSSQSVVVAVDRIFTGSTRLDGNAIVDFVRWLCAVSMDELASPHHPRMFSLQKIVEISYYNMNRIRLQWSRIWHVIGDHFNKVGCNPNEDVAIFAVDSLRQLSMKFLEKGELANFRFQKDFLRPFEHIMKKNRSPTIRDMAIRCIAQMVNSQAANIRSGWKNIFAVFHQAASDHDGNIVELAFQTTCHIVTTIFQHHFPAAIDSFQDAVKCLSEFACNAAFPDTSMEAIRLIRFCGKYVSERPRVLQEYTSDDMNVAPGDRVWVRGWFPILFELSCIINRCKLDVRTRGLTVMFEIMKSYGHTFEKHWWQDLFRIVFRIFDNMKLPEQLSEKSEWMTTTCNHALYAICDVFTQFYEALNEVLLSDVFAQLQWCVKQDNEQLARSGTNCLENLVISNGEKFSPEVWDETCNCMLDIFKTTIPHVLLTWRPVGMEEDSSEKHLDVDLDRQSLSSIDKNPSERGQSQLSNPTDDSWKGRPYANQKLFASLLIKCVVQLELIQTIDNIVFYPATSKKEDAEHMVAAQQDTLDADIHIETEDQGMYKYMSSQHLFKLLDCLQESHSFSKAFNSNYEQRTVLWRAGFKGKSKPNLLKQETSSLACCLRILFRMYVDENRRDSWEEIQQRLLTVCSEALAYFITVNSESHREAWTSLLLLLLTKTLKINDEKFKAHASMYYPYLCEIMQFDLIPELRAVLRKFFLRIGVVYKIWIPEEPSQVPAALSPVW
UniProt P47756: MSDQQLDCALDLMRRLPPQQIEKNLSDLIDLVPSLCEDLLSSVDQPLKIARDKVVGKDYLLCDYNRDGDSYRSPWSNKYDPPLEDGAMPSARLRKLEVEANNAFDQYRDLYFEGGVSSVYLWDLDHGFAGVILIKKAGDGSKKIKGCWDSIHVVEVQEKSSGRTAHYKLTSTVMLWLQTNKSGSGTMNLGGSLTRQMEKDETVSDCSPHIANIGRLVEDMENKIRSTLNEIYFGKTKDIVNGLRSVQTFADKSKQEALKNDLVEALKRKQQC
UniProt P33241: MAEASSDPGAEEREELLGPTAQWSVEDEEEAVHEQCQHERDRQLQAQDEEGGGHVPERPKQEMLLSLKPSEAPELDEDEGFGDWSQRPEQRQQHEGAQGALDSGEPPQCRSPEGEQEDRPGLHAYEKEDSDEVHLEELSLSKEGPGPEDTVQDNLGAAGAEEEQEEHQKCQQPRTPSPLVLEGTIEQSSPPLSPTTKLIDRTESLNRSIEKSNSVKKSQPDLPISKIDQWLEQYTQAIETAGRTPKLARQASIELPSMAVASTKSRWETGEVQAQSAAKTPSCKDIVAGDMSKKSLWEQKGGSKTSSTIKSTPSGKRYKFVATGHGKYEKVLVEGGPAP
UniProt P60660: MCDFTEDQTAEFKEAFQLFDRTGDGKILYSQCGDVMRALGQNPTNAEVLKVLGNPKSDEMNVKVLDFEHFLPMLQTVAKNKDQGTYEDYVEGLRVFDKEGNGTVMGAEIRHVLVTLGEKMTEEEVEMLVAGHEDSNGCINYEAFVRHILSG
UniProt P07478: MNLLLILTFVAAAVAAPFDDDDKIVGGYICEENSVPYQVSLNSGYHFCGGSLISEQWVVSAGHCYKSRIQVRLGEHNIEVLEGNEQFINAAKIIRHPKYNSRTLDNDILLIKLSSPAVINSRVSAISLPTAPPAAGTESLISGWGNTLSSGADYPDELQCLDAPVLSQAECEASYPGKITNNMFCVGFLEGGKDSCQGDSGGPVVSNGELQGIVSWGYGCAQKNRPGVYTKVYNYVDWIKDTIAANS
UniProt P08670: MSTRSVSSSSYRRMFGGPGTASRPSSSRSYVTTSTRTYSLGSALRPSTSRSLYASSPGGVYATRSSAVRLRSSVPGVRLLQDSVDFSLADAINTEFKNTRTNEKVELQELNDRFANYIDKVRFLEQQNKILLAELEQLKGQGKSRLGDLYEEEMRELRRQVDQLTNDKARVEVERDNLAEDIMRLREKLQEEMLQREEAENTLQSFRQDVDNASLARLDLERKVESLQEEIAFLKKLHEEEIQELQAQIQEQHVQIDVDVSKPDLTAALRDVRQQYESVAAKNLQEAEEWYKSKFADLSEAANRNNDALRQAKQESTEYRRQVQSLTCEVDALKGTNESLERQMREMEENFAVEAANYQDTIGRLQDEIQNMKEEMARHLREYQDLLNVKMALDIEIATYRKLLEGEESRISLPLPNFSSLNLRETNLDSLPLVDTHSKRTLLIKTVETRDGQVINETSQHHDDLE

B1: ZNF483 protein (protein, UniProt Q8TF39 1-744)
chain: MQAVVPLNKMTAISPEPQTLASTEQNEVPRVVTSGEQEAILRGNAADAESFRQRFRWFCYSEVAGPRKALSQLWELCNQWLRPDIHTKEQILELLVFEQFLTILPGEIRIWVKSQHPESSEEVVTLIEDLTQMLEEKDPVSQDSTVSQEENSKEDKMVTVCPNTESCESITLKDVAVNFSRGEWKKLEPFQKELYKEVLLENLRNLEFLDFPVSKLELISQLKWVELPWLLEEVSKSSRLDESALDKIIERCLRDDDHGLMEESQQYCGSSEEDHGNQGNSKGRVAQNKTLGSGSRGKKFDPDKSPFGHNFKETSDLIKHLRVYLRKKSRRYNESKKPFSFHSDLVLNRKEKTAGEKSRKSNDGGKVLSHSSALTEHQKRQKIHLGDRSQKCSKCGIIFIRRSTLSRRKTPMCEKCRKDSCQEAALNKDEGNESGEKTHKCSKCGKAFGYSASLTKHRRIHTGEKPYMCNECGKAFSDSSSLTPHHRTHSGEKPFKCDDCGKGFTLSAHLIKHQRIHTGEKPYKCKDCGRPFSDSSSLIQHQRIHTGEKPYTCSNCGKSFSHSSSLSKHQRIHTGEKPYKCGECGKAFRQNSCLTRHQRIHTGEKPYLCNDCGMTFSHFTSVIYHQRLHSGEKPYKCNQCEKAFPTHSLLSRHQRIHTGVKPYKCKECGKSFSQSSSLNEHHRIHTGEKPYECNYCGATFSRSSILVEHLKIHTGRREYECNECEKTFKSNSGLIRHRGFHSAE
B2: Regulatory factor X-associated protein (protein, UniProt O00287 1-272)
chain: MEAQGVAEGAGPGAASGVPHPAALAPAAAPTLAPASVAAAASQFTLLVMQPCAGQDEAAAPGGSVGAGKPVRYLCEGAGDGEEEAGEDEADLLDTSDPPGGGESAASLEDLEDEETHSGGEGSSGGARRRGSGGGSMSKTCTYEGCSETTSQVAKQRKPWMCKKHRNKMYKDKYKKKKSDQALNCGGTASTGSAGNVKLEESADNILSIVKQRTGSFGDRPARPTLLEQVLNQKRLSLLRSPEVVQFLQKQQQLLNQQVLEQRQQQFPGTSM
B3: EF-hand domain-containing protein D2 (protein, UniProt Q96C19 1-240)
chain: MATDELATKLSRRLQMEGEGGGETPEQPGLNGAAAAAAGAPDEAAEALGSADCELSAKLLRRADLNQGIGEPQSPSRRVFNPYTEFKEFSRKQIKDMEKMFKQYDAGRDGFIDLMELKLMMEKLGAPQTHLGLKNMIKEVDEDFDSKLSFREFLLIFRKAAAGELQEDSGLCVLARLSEIDVSSEGVKGAKSFFEAKVQAINVSSRFEEEIKAEQEERKKQAEEMKQRKAAFKELQSTFK
B4: Serine/threonine-protein phosphatase 4 regulatory subunit 4 isoform 1 (protein, UniProt Q6NUP7 1-873)
chain: MHPPPPAAAMDFSQNSLFGYMEDLQELTIIERPVRRSLKTPEEIERLTVDEDLSDIERAVYLLSAGQDVQGTSVIANLPFLMRQNPTETLRRVLPKVREALHVAGVEMQLTAAMSFLTILQDESVSIHAYTHSFLQVILLHLEHRDTGVSNAWLETLLSVIEVLPKETLRHEILNPLVSKAQLSQTVQSRLVSCKILGKLTNKFDAHTIKREILPLVKSLCQDVEYEVRSCMCRQLENIAQGIGTELTKSVVLPELIELSRDEGSSVRLAAFETLVNLLDIFDTDDRSQTILPLVKSFCEKSFKADESILISLSFHLGKLCHGLYGIFTPDQHLRFLEFYKKLCTLGLQQENGHNENQIPPQILEQEKKYISVRKNCAYNFPAMIVFVDPKNFHMELYSTFFCLCHDPEVPVRYTIAICFYEVSKLLNSGVYLIHKELITLLQDESLEVLDALIDHLPEILELMSTGGESSVQENKLSSLPDLIPALTAAEQRAAASLKWRTHEKLLQKYACLPHVISSDQIYYRFLQRMFTIMMTNNVLPVQKAASRTLCIFLRYNRKQEQRHEVIQKLIEQLGQGKSYWNRLRFLDTCEFIIEIFSKSFFCKYFFLPAIELTHDPVANVRMKLCYLLPKVKSTLKIPADKHLLQQLEMCVRKLLCQEKDKDVLAIVKRTVLELDRMEMSMDAFQKKFYEKDLLDQEKEREELLLLEMEQLEKEKQQNDGRPMSDKMFEKKRRDTKTPTQSLPKNIPISVPGPSSVTPSTSKEIKKSKLIRSQSFNNQAFHAKYGNLEKCASKSSTTGYTTSVSGLGKTSVLSLADDSFRTRNASSVPSSFSPNTPLPSTSRGTGNSVDPKSSGSKDTQPRKATLKSRKSNP
B5: Regulator of microtubule dynamics protein 2 (protein, UniProt Q96LZ7 1-410)
chain: MPYSTNKELILGIMVGTAGISLLLLWYHKVRKPGIAMKLPEFLSLGNTFNSITLQDEIHDDQGTTVIFQERQLQILEKLNELLTNMEELKEEIRFLKEAIPKLEEYIQDELGGKITVHKISPQHRARKRRLPTIQSSATSNSSEEAESEGGYITANTDTEEQSFPVPKAFNTRVEELNLDVLLQKVDHLRMSESGKSESFELLRDHKEKFRDEIEFMWRFARAYGDMYELSTNTQEKKHYANIGKTLSERAINRAPMNGHCHLWYAVLCGYVSEFEGLQNKINYGHLFKEHLDIAIKLLPEEPFLYYLKGRYCYTVSKLSWIEKKMAATLFGKIPSSTVQEALHNFLKAEELCPGYSNPNYMYLAKCYTDLEENQNALKFCNLALLLPTVTKEDKEAQKEMQKIMTSLKR

These are yes or no findings as the source states them, for the method shown. Binding seen in cells or lysates may run through a third protein. Here binding means that the protein was enriched with, or labelled near, the bait; the list need not be complete.

This assay concerns the target Latency-associated nuclear antigen (LANA), endogenous in KSHV-positive cells (KSHV (human herpesvirus 8)) (UniProt Q9QR71). Nature of the assay: affinity purification with mass spectrometry; BCBL-1 RIPA lysate; immunoprecipitation with anti-LANA against control IgG; Cy3/Cy5 labelling, 2D-DIGE; unique spots identified by MALDI-TOF MS and MS/MS.
As to “Alpha-actinin-4 (from UniProt O43707 1-911)”, the binding entry is reported as “binds”.

On to “Brefeldin A-inhibited guanine nucleotide-exchange protein 2 (from UniProt Q9Y6D5 1-1785)”, for which the binding entry is given as “binds”.

“Capping protein (actin filament) muscle Z-line, beta (from UniProt P47756 1-272)”: the binding entry is recorded as “binds”.

Consider “Lymphocyte-specific protein 1 isoform 1 (from UniProt P33241 1-339)”, for which the binding result is recorded as “binds”.

As for “MYL6 protein (from UniProt P60660 1-151)”, the binding result was “binds”.

With “Protease serine 2 preproprotein (from UniProt P07478)”, the binding entry is on record as “binds”.

Consider “ZFYVE26 protein (from UniProt Q68DK2 1-2539)”, for which the binding result is listed as “binds”.

As to “nonerythroid alpha-spectrin (from UniProt Q13813 1-2472)”, the binding entry is listed as “binds”.

On to vimentin (from UniProt P08670 1-466), for which the binding entry is “binds”.

B1: the binding result is given as “binds”.

Take B2: the binding entry is given as “binds”.

As to B3, the binding entry is given as “binds”.

B4: the binding entry is “binds”.

As to B5, the binding result is “binds”.
